# Some of the results follow. Values are raw readings; no control value is given beside them.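 Primary screen: polymyxin B was added at a level permeabilizing Salmonella outer membranes while sparing inner membranes. DMSO wells, both with and without polymyxin B, established maximum growth. Plate-to-plate variation meant each plate was ranked on its own, and the lowest-OD600 compounds were selected as hits.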
# Tested on: Salmonella enterica serovar Typhimurium SL1344
# Assay: bacterial growth OD600 after 18 h with compound and polymyxin B; higher = more bacterial growth (less inhibition)
# Settings: 50 µM, Mueller-Hinton broth
SMILES,bacterial growth OD600 (polymyxin B 1 µg/mL),bacterial growth OD600 (polymyxin B 0.75 µg/mL)
CCCN1CCC(NCc2cccnc2Oc2ccccc2F)CC1,0.905,
Cc1oc(-c2cccc(NC(=O)CCc3cccnc3)c2)nc1CNC(=O)Cc1cccc(F)c1F,,0.803
Cc1ccccc1C1(CC(=O)N2CCN(c3cnccn3)CC2)CC(=O)N(Cc2ccccc2)C1=O (centres undefined),,0.613
O=C1O[C@@H]2CN(Cc3ccncc3)C[C@@H]2N1CCc1ccc(F)cc1,,0.942
CCN(Cc1ccccc1)C(=O)c1cc(NC(=O)COC)cc2ncn(Cc3ccc(F)cc3)c12,,0.849
CC(C)Cc1ccc(CN2CC[C@@H](N3CCN(c4ccccn4)CC3)[C@H](O)C2)s1,,0.689
CCOC(=O)C1CCCN(Cc2c(C(=O)N(C)Cc3ccccc3)nc3ccccn23)C1 (centres undefined),,0.529
O=C(c1ccccn1)C1CCCN(C(=O)Cn2nnnc2CN2CCCC2)C1 (centres undefined),0.922,
CN(C)C1CCN(C(=O)C2(N(C)CCc3ccccc3)Cc3ccccc3C2)C1 (centres undefined),0.872,
CN(Cc1nc(-c2ccc(Cl)cc2)no1)C(C1CC1)C1CC1,0.716,
CN(c1ncccc1CNC(=O)c1ccc[n+]([O-])c1)C1CCCCC1,,0.961
COc1ccc(Cl)cc1NC(=O)CCC1CCCN(C(=O)CCc2ccncc2)C1 (centres undefined),0.874,
COc1c(C)cc(C(=O)C2CCCN(Cc3cnc(SC)nc3)C2)cc1C (centres undefined),0.661,
COc1ccc(CC2(CCC(=O)N3CCN(c4cccc(C)c4C)CC3)CCC(=O)N2)cc1OC (centres undefined),,0.764
COCCCN1C(=O)CC(CC(=O)N(C)CCn2nc(C)cc2C)(c2ccccc2OC)C1=O (centres undefined),,0.836
COc1cc(CN2CCN(Cc3ccc(OC(C)C)cc3)CC2CCO)cc(OC)c1 (centres undefined),0.871,
COCc1ccc(C(=O)N2CCC(C(Cc3cccc(OC)c3)N(C)C(=O)c3ccn(C)n3)CC2)o1 (centres undefined),,0.726
O=C(c1cn(Cc2ccccc2Cl)nn1)N1CCC(c2ccccc2F)C1 (centres undefined),0.388,
COC(=O)c1c(OCCCc2ccccc2)cc(=O)n2c1CCN(C(=O)c1ccc(F)cc1F)CC2,,0.789

# Looked up above:
# In bacterial growth OD600 (polymyxin B 1 µg/mL), COc1ccc(Cl)cc1NC(=O)CCC1CCCN(C(=O)CCc2ccncc2)C1 (centres undefined) is entered as 0.874
# In bacterial growth OD600 (polymyxin B 0.75 µg/mL), CCN(Cc1ccccc1)C(=O)c1cc(NC(=O)COC)cc2ncn(Cc3ccc(F)cc3)c12 is entered as 0.849

# Source: the supplement of paper PMC12889115
